Test results published in US11712404B2 (priority 2018, dated 2023).
Values joined by “and” are separate entries in the source; they are usually repeats but may differ in a detail not shown here. Equal values may be shown once.

Assay: Polymerization kinetics of adhesive resins (real-time near-IR during photocuring)
Details: for degree of conversion at Rpmax (DC at Rpmax) / maximum rate of polymerization (Rpmax): average (SD); for increase of polymerization rate when combined with UDMA: UDMA versus BisGMA
[1] = 40 wt % monomer with 60 wt % BisGMA
[2] = 40 wt % monomer with 60 wt % UDMA

With C=CC(=O)N(C)C [DMAM, N.N-Dimethylacrylamide] the “degree of conversion at Rpmax (DC at Rpmax)” value (“degree of conversion at Rpmax” below) [1] was 39.1 (2.9) AB %, the “maximum rate of polymerization (Rpmax)” value [1] was 31.3 (0.6) A % · s^−1 and the “degree of conversion at Rpmax” value [2] was 54.0 (0.9) A %. For the same compound, the “maximum rate of polymerization (Rpmax)” value [2] was 24.6 (2.0) A % · s^−1, the “DC at 40 s” value (BisGMA (second Table 2)) was 81.3(0.8)A and the “DC at Rpmax” value (BisGMA (second Table 2)) was 39.1(2.9)A %. The Rpmax (BisGMA (second Table 2)) was 31.3(0.6)A %·s−1, the “DC at 40 s” value (UDMA (second Table 2)) was 91.0(1.5)A and the “DC at Rpmax” value (UDMA (second Table 2)) was 54.0(0.9)A %. The Rpmax (UDMA (second Table 2)) was 24.6(2.0)A %·s−1, the “final degree of conversion” value (copolymerization with BisGMA) was 90.2% and the “final degree of conversion higher than HEM” value (copolymerization with BisGMA) was 13%. For the same compound, the polymerization rate (copolymerization with BisGMA) was 31.3 %.sec^−1 and 31.2 %.sec^−1, the “polymerization rate relative to HEM” value (copolymerization with BisGMA) was ~4 times and the “final degree of conversion” value (copolymerization with UDMA) was 95.5%. The polymerization rate (copolymerization with UDMA) was 24.6 %.sec^−1 and 23.0 %.sec^−1.
In the case of C=CC(=O)NCCO [HEAM, N-Hydroxyethyl acrylamide], the “degree of conversion at Rpmax” value [1] is reported as 35.3 (0.9) BC % and the “maximum rate of polymerization (Rpmax)” value [1] is reported as 11.4 (0.4) C % · s^−1.
With C=CC(=O)N(C)CCO [HEM, N-(2-hydroxyethyl)-N-methylacrylamide] the “degree of conversion at Rpmax” value [1] was 29.6 (0.6) CD %, the “maximum rate of polymerization (Rpmax)” value [1] was 8.3 (1.4) D % · s^−1 and the “degree of conversion at Rpmax” value [2] was 36.5 (2.3) C %. For the same compound, the “maximum rate of polymerization (Rpmax)” value [2] was 26.2 (0.5) A % · s^−1, the “DC at 40 s” value (BisGMA (second Table 2)) was 60.3(0.7)C and the “DC at Rpmax” value (BisGMA (second Table 2)) was 29.6(0.6)BC %. The Rpmax (BisGMA (second Table 2)) was 8.3(1.4)C %·s−1, the “DC at 40 s” value (UDMA (second Table 2)) was 84.2(1.9)A and the “DC at Rpmax” value (UDMA (second Table 2)) was 36.5(2.3)C %. The Rpmax (UDMA (second Table 2)) was 26.2(0.5)A %·s−1, the “final degree of conversion” value (copolymerization with BisGMA) was 78.1% and the polymerization rate (copolymerization with BisGMA) was 8.3 %.sec^−1. For the same compound, the “final degree of conversion” value (copolymerization with UDMA) was 93.2% and 92.6% and the polymerization rate (copolymerization with UDMA) was 26.2 %.sec^−1 and 25.0 %.sec^−1 and 26.1 %.sec^−1.
In the case of C=C(C)C(=O)OCCO [HEMA, 2-Hydroxyethyl methacrylate], the “degree of conversion at Rpmax” value [1] is reported as 29.8 (1.9) CD %, the “maximum rate of polymerization (Rpmax)” value [1] is reported as 10.9 (0.6) C % · s^−1 and the “degree of conversion at Rpmax” value [2] is reported as 44.7 (1.0) B %. The “maximum rate of polymerization (Rpmax)” value [2] was 17.1 (0.1) B % · s^−1, the “DC at 40 s” value (BisGMA (second Table 2)) was 67.7(2.7)B and the “DC at Rpmax” value (BisGMA (second Table 2)) was 29.8±1.9% and 29.8(1.9)BC %. For the same compound, the Rpmax (BisGMA (second Table 2)) was 10.9(0.6)B %·s−1, the “DC at 40 s” value (UDMA (second Table 2)) was 75.3(1.2)B and the “DC at Rpmax” value (UDMA (second Table 2)) was 44.7±1.0% and 44.7(1.0)B %. For the same compound, the Rpmax (UDMA (second Table 2)) was 17.1(0.1)B %·s−1, the “final degree of conversion” value (copolymerization with UDMA) was 90.3% and the polymerization rate (copolymerization with UDMA) was 17.1 %.sec^−1 and 17.0 %.sec^−1.
In the case of C=C(C)C(=O)NCCO [HEMAM, N-Hydroxyethyl methacrylamide], the “degree of conversion at Rpmax” value [1] is reported as 26.1 (0.2) D %, the “maximum rate of polymerization (Rpmax)” value [1] is reported as 6.9 (0.9) D % · s^−1 and the “degree of conversion at Rpmax” value [2] is reported as 22.7 (0.9) D %. The “maximum rate of polymerization (Rpmax)” value [2] was 16.9 (0.2) B % · s^−1, the “DC at 40 s” value (BisGMA (second Table 2)) was 47.3(6.9)D and the “DC at Rpmax” value (BisGMA (second Table 2)) was 26.1(0.2)C %. For the same compound, the Rpmax (BisGMA (second Table 2)) was 6.9(0.9)C %·s−1, the “DC at 40 s” value (UDMA (second Table 2)) was 65.4(1.5)C and the “DC at Rpmax” value (UDMA (second Table 2)) was 22.7(0.9)D %. The Rpmax (UDMA (second Table 2)) was 16.9(0.2)B %·s−1, the “increase of polymerization rate when combined with UDMA” value (“increase of polymerization rate” below) was “more than two-fold” and the “final degree of conversion” value (copolymerization with BisGMA) was 74.9% and 75.9%. For the same compound, the polymerization rate (copolymerization with BisGMA) was 6.9 %.sec^−1 and 7.4 %.sec^−1, the “final degree of conversion” value (copolymerization with UDMA) was 84.0% and the polymerization rate (copolymerization with UDMA) was 16.9 %.sec^−1 and 17.0 %.sec^−1 and 16.0 %.sec^−1.
In the case of C=C(C)C(=O)N(C)CCO [HEMMA, N-(2-hydroxyethyl)-N-methylmethacrylamide], the “degree of conversion at Rpmax” value [1] is reported as 19.0 (1.1) E % and the “maximum rate of polymerization (Rpmax)” value [1] is reported as 1.9 (0.3) E % · s^−1.
For C=C(C)C(=O)NC(CC)CO (stereo not shown) [Monomer 2EM, N-(1-hydroxybutan-2-yl)methacrylamide], the “degree of conversion at Rpmax” value [1] was 18.5 (0.7) E %, the “maximum rate of polymerization (Rpmax)” value [1] was 6.8 (0.1) D % · s^−1 and the “degree of conversion at Rpmax” value [2] was 16.5 (2.7) E %. The “maximum rate of polymerization (Rpmax)” value [2] was 14.7 (0.6) B % · s^−1, the “DC at 40 s” value (BisGMA (second Table 2)) was 41.3(0.7)D and the “DC at Rpmax” value (BisGMA (second Table 2)) was 18.5(0.7)D %. The Rpmax (BisGMA (second Table 2)) was 6.8(0.1)C %·s−1, the “DC at 40 s” value (UDMA (second Table 2)) was 58.4(1.6)CD and the “DC at Rpmax” value (UDMA (second Table 2)) was 16.5(2.7)E %. For the same compound, the Rpmax (UDMA (second Table 2)) was 14.7(0.6)B %·s−1, the “increase of polymerization rate” value was “more than two-fold” and the “final degree of conversion” value (copolymerization with BisGMA) was 72.6%. The polymerization rate (copolymerization with BisGMA) was 8.3 %.sec^−1 and 6.7 %.sec^−1, the “final degree of conversion” value (copolymerization with UDMA) was 84.1% and the polymerization rate (copolymerization with UDMA) was 14.7 %.sec^−1 and 14.0 %.sec^−1.
With C=C(C)C(=O)NC(C)(C)CO [Monomer 2dMM, N-(1-hydroxy-2-methylpropan-2-yl)methacrylamide] the “degree of conversion at Rpmax” value [1] was 14.5 (3.0) E %, the “maximum rate of polymerization (Rpmax)” value [1] was 12.4 (0.6) BC % · s^−1 and the “degree of conversion at Rpmax” value [2] was 18.6 (1.6) DE %. For the same compound, the “maximum rate of polymerization (Rpmax)” value [2] was 15.9 (0.2) B % · s^−1, the “DC at 40 s” value (BisGMA (second Table 2)) was 45.3(0.6)D and the “DC at Rpmax” value (BisGMA (second Table 2)) was 14.5(3.0)D %. For the same compound, the Rpmax (BisGMA (second Table 2)) was 12.4(0.6)B %·s−1, the “DC at 40 s” value (UDMA (second Table 2)) was 57.0(1.0)D and the “DC at Rpmax” value (UDMA (second Table 2)) was 18.6(1.6)DE %. For the same compound, the Rpmax (UDMA (second Table 2)) was 15.9(0.2)B %·s−1, the “increase of polymerization rate” value was 25% and the “final degree of conversion” value (copolymerization with BisGMA) was 73.7%. The polymerization rate (copolymerization with BisGMA) was 12.4 %.sec^−1 and 12.3 %.sec^−1, the “final degree of conversion” value (copolymerization with UDMA) was 80.1% and the polymerization rate (copolymerization with UDMA) was 15.9 %.sec^−1 and 15.0 %.sec^−1.
